# Test results as given in publication PMC2910475.
# No constants are given. Whether binding was seen depends on the method and setting. Tags and fused reporters may be left off the sequences shown.
# B1: Rio1p Ser/Thr kinase homolog (HVO_0135) with C-terminal StrepII tag (enzyme, UniProt D4GYY1 1-290)
# chain: MTDEFGMVEPQEGEAFGDEWEEIDVSDDEADRIARRKDRDFDEFRMRLKDADQFKVEQSVFDDATFAAIYKLVQDGHIDAFGGPISTGKEANVFEALGGDDADVAVKIYRINASDFRHMRDYLEGDPRFENIGHDKGQVVRAWVRKEFANLERAQRAGVRVPKPIAVQRNVLVMELVGVVDDRARRLSEVRVENPQTAYEVVREYMRRLHRAGLVHGDLSEYNLIIHDGELVVIDLGQAVTVHHPNAEEFLRRDCRNVANFFRRQGADADGDSLYEFVTGDEGEDGDGDE
# Target: Rio1p Ser/Thr kinase homolog (HVO_0135) with C-terminal StrepII tag (Haloferax volcanii) (UniProt D4GYY1)
# Test: SEC; StrepTactin-purified Rio1p on a calibrated Superose 200 HR 10/30 column; 20 mM Tris pH 7.2, 2 M NaCl; both purified
binder,measurement,value
B1,binding,no binding
